Test results as given in article PMC12040169 (PLOS Biology, 2025).
The other results are listed elsewhere or left out.

Tested on: T1, CTL2-GFP (C. trachomatis L2/434/Bu, GFP-expressing)
T1 construct: L2/434/Bu, GFP-expressing
Design: species or system HeLa; Intracellular C. trachomatis growth in HeLa cells, bulk GFP fluorescence relative to DMSO
Conditions: bulk GFP, single well; 28.5 h, 10 µM; inhibitor

Structure (SMILES)	% of control remaining
Cc1ccnc(NCC2CCN(c3cc(=O)n4oc(C)cc4n3)C2)c1 (stereo not shown) [CBK305191]	150.997%
COc1cncc(-c2cnc(N)c(NC3CCOCC3)n2)c1 [CBK063846]	107.269%
Cn1cncc1C(=O)N1CCN(Cc2ccccc2)CC1 [CBK200178]	113.675%
Cc1ccccc1-n1ccn(C(=O)CCC2CCCC2)c1=O [CBK106571]	118.888%
O=C(c1ccccc1F)N1CCC(c2cc3ncccc3[nH]2)CC1 [CBK283391]	131.769%
c1cc(-c2nccnc2OCCn2ccnc2)ccn1 [CBK106737]	105.287%
Cc1cc2c3c(c1)c1c(n3CCC2)CCNCC1 [CBK018380C]	86.1706%
CCC(C)N1CCN(S(=O)(=O)c2ccccc2[N+](=O)[O-])CC1 (stereo not shown) [CBK264270G]	100%
Cc1ccc(CSCC(=O)N2CCC(Cc3ccccc3)CC2)cc1 [CBK058739]	109.158%
COc1ccc(Cn2nc(NC(=O)OC(C)C)c3ccccc32)cc1 [CBK048404]	177.172%
Cc1ccc(-c2cncc(N3CCN(CCO)CC3)n2)cc1C [CBK065912]	135.116%
CC(=O)C1=C(c2ccccc2)NC(=S)NC1c1cc(Cl)ccc1OCC(=O)O (stereo not shown) [CBK267300]	132.472%
Cc1nc(CC(=O)OC(C)C(=O)N2CCCc3ccccc32)cs1 (stereo not shown) [CBK305285]	101.971%
CC1=Nc2ccc(Cl)cc2C(C)(C)O1 [CBK022763C]	124.408%
COc1ccc(/C=N/NC(=O)CCc2c(C)n[nH]c2C)cc1O [CBK262894]	113.182%
O=C(CCn1c(C(F)F)cc2cccnc21)NCc1ccc(F)cc1 [CBK285067]	89.0435%
O=C(Cn1nnc2ccccc2c1=O)NCC(F)(F)F [CBK304533]	147.255%
COc1ccc(-c2cccc(Nc3cccnc3)n2)cc1OC [CBK037644]	120.012%
Cc1c(C)n(C)c2nc(N3CCCC3)nc(N3CCCC3)c12 [CBK016683C]	100%
CCc1nc2ccc(C(=O)NCCOc3ccc(OC)cc3)cn2c1N(C)CC [CBK145504]	155.992%

Structure (SMILES)	% of control remaining
O=C(O)COc1ccc(S(=O)(=O)N2CCCCC2)cc1Cl [CBK268419]	107.797%
O=c1oc(-c2cccc(F)c2)nc2ccc(Cc3ccc4nc(-c5cccc(F)c5)oc(=O)c4c3)cc12 [CBK262856]	101.693%
CCOc1ccccc1-c1ccccc1NC(=O)c1cc(=O)n(C)c2ccccc12 [CBK285843]	106.628%
Cn1cnnc1C1CCCN(C(=O)NCc2cccc(F)c2)C1 (stereo not shown) [CBK305792]	111.484%
CCc1cccc2c(CC(=O)NC3CCCOC3)c(C)[nH]c12 (stereo not shown) [CBK282584]	118.534%
Cc1c(C(=O)N2CCN(C3CCCCC3)C(=O)C2)[nH]c2ccccc12 [CBK282539]	111.939%
O=C(NC1CCCc2nc(N3CCC(CO)CC3)ncc21)C1CCCC1 (stereo not shown) [CBK307415]	105.033%
Cc1ccccc1CN1CCCN(C(=O)CCNC(=O)c2ccco2)CC1 [CBK297718]	147.943%
COC1CCC(C(=O)Nc2cnc(-c3cccc(OC(F)(F)F)c3)c(-c3cccnc3)n2)CC1 (stereo not shown) [CBK036754]	176.656%
c1csc(-c2cncc(NCCCN3CCOCC3)n2)c1 [CBK065623]	140.174%
C[C@H]1[C@@H]2[C@@H](O)C([C@H](C)C(=O)N3CCCC3)CC[C@@]2(C)CC[C@@H]1NC(=O)c1ccncc1 (stereo partly shown) [CBK289450]	115.337%
N#CCCN(C(=O)Nc1ccc2c(c1)OCCO2)C1CCCCC1 [CBK156364]	137.765%
O=C(Nc1cc(-c2nc3ncccc3o2)ccc1Cl)c1cccnc1 [CBK269700]	136.315%
OCCOc1ccccc1N1CCOCC1 [CBK001767C]	91.3146%
COc1c(C)cnc(COC(=O)N2CCOCC2)c1C [CBK200145]	192.847%
CCOCC1CCN(C(=O)c2ncsc2Nc2cccnc2)C1 (stereo not shown) [CBK304514]	91.4412%
CC(C)CC(CC(C)C)OCC(=O)NCC1(c2ccc3ccccc3c2)CCC1 [CBK067404]	104.655%
O=C(C1=C(O)C(=O)N(c2ncccn2)C1c1cccc([N+](=O)[O-])c1)c1ccc(F)cc1 (stereo not shown) [CBK264932]	120.691%
O=C(Cn1cc(C(=O)COc2ccccc2)c2ccccc21)Nc1ccccc1 [CBK267653]	75.6299%
CC(Nc1oc(-c2ccco2)nc1S(=O)(=O)c1ccc(F)cc1)c1ccccc1 (stereo not shown) [CBK267671]	124.123%

Already shown: 3 of the compounds above.
Structure (SMILES)	% of control remaining
CCOc1ccccc1-c1ccccc1NC(=O)c1cc(=O)n(C)c2ccccc12 [CBK285843]	106.628%
Cn1cnnc1C1CCCN(C(=O)NCc2cccc(F)c2)C1 (stereo not shown) [CBK305792]	111.484%
CCc1cccc2c(CC(=O)NC3CCCOC3)c(C)[nH]c12 (stereo not shown) [CBK282584]	118.534%
